Laboratory results reported in article PMC8178348.
Results are given in words; binding and its absence hold for the method and conditions named. In cells and extracts the contact can be indirect. Some entries that bind do so weakly or less than the wild type.

Protein sequences, listed by entry. Tags and fused reporters are not part of them.
UniProt Q13887: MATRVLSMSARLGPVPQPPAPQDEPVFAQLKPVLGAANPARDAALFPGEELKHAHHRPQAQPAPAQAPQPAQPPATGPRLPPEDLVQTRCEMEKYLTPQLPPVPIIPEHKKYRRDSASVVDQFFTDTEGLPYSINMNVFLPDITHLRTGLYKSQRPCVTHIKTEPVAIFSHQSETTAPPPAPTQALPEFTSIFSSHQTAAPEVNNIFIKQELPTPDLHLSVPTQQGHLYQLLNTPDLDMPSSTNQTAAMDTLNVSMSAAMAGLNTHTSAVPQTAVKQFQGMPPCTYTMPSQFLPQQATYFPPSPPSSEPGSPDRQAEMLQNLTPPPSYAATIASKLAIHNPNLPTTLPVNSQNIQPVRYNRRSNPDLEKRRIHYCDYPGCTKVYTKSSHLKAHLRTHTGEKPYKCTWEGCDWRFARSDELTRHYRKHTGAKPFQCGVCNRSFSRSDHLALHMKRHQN
UniProt Q9HAU4: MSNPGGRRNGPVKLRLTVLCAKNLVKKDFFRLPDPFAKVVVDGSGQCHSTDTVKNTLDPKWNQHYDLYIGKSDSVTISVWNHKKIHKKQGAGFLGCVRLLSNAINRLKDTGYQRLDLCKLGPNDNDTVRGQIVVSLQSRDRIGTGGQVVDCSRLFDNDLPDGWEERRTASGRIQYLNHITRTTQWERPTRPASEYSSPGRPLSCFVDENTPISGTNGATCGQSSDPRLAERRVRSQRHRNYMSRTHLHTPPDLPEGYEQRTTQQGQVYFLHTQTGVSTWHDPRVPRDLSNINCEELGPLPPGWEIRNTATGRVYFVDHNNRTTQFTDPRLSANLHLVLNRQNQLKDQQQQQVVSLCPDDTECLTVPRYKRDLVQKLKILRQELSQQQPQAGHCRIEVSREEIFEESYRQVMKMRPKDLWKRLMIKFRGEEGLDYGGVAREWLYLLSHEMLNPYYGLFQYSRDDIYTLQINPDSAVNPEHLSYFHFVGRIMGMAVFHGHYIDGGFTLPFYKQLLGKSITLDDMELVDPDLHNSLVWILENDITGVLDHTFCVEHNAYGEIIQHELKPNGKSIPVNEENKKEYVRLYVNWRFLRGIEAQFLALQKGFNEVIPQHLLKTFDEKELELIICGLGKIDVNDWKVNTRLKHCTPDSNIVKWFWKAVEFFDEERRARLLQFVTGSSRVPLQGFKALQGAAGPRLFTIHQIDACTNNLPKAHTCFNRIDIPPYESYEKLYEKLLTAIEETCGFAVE

Experiments:
[1] = biological target: endogenous KLF5 (human (endogenous in BMSCs)) (UniProt Q13887); assay: co-IP; lysate of transduced human BMSCs expressing myc-WWP1 or myc-Smurf2; antibody overnight at 4 °C, Protein A-agarose 2 h at 4 °C, Western blot; IgG as negative control
[2] = biological target: GST-WWP1 fusion protein (UniProt Q9H0M0); assay: pull-down; purified GST, GST-WWP1 or GST-Smurf2 on glutathione-Sepharose 4B beads in GST binding buffer; 10 µl 35S-labeled in vitro translated KLF5 added, 4 °C, 2 h; autoradiography; only the target purified
[3] = biological target: GST-Smurf2 fusion protein (UniProt Q9HAU4); assay: as above

Row | binding [1] | binding [2] | binding [3] | Substance
1 | binds |  |  | Myc-tagged Smurf2 (from UniProt Q9HAU4 1-748) (enzyme)
2 |  | binds | binds | in vitro-translated KLF5 protein (from UniProt Q13887 1-457)
